Source: patent publication US20140303228A1, “Biomarkers for Amyotrophic Lateral Sclerosis and Methods Using the Same” (METABOLON, INC., priority 2011, published 2014)

Assays:
Design in all cases: species or system human
[1] = Metabolomic profiling of blood plasma samples, ALS vs. symptom mimic disease subjects (Tables 5, 9); details: for % Change in ALS: blood plasma, ALS mean (172 subjects) vs symptom mimic disease mean (73 subjects), positive = increase in ALS, T-test; for Direction of change in ALS: plasma, ALS patients relative to symptom mimic disease patients, Random Forest and/or Wilcoxon (FDR < 0.15)
[2] = Plasma metabolite levels of ALS subjects over time, month 1 vs. month 12 (Table 15); details: month 1 vs month 12 after screening, 37 patients, matched-pairs T-test, positive = increase as disease progressed
[3] = Metabolomic profiling of blood plasma samples, MND vs. symptom mimic disease subjects (Table 13); details: 200 MND subjects vs 73 symptom mimic disease patients, Wilcoxon FDR < 0.15

Row | Compound | % Change in ALS [1] [%] | % Change with disease progression [2] | Direction of change in ALS [1] | Direction of change in MND [3]
1 | O=C(O)[C@@H]1C[C@@H](O)CN1 (relative stereo) [trans-4-hydroxyproline] | −14 | 1% |  | 
2 | CCC(N)C(=O)O (centres unmarked) [2-aminobutyrate] | 6 | −2% |  | 
3 | CC[C@H](O)C(=O)O [2-hydroxybutyrate (AHB), 2-hydroxybutyrate] | 19 |  | Higher | Higher
4 | CCCc1oc(CCC(=O)O)c(C(=O)O)c1C [3-carboxy-4-methyl-5-propyl-2-furanpropanoate] | −95 | 43% |  | 
5 | C[N+](C)(C)CC(=O)CC(=O)[O-] [3-dehydrocarnitine] | −22 |  | Lower | Lower
6 | O=S(=O)(O)Oc1c[nH]c2ccccc12 [3-indoxyl sulfate] | −14 | −11% |  | 
7 | Cn1c(=O)[nH]c(=O)c2[nH]cnc21 [3-methylxanthine] | −58 |  | Lower | Lower
8 | C=CCCCCCCCCC(=O)O [10-undecenoate (11:1n1), 10-undecenoate] | 16 |  | Higher | Higher
9 | CC(=O)OP(=O)(O)O [acetyl phosphate] |  | −1% |  | 
10 | CC(C)C(O)C(=O)O (stereo not drawn) [alpha-hydroxyisovalerate] |  | −13% |  | 
11 | NC(=O)C[C@H](N)C(=O)O [asparagine] | −8 | 8% |  | 
12 | CCCCCCCC(=O)O [caprylate (8:0), caprylate] | 47 | 2% |  | 
13 | C[C@]12CCC(=O)C=C1CC[C@@H]1[C@@H]2C(=O)C[C@@]2(C)[C@H]1CC[C@]2(O)C(=O)CO [cortisone] | 14 |  | Higher | Higher
14 | CN(CC(=O)O)C(=N)N [creatine] | 22 |  | Higher | Higher
15 | N[C@@H](CS)C(=O)O [cysteine] | −10 | −14% | Lower | 
16 | O=C(O)[C@H](O)[C@H](O)CO [erythronate] | −17 | −15% |  | 
17 | N[C@@H](CCC(=O)N[C@@H](Cc1ccccc1)C(=O)O)C(=O)O [gamma-glutamylphenylalanine] |  | −22% |  | 
18 | N[C@@H](CCC(=O)O)C(=O)O [glutamate] |  | −19% |  | 
19 | CC(C)[C@H](NC(=O)[C@@H](N)CCC(=O)O)C(=O)O [glutamyl-valine] (H-Glu-Val-OH) |  | −17% |  | 
20 | O=C(O)CCCCCCCCCCCCCCC(=O)O [hexadecanedioate] | 27 |  | Higher | Higher

Row | Compound | % Change in ALS [1] [%] | % Change with disease progression [2] | Direction of change in ALS [1] | Direction of change in MND [3]
21 | O=C(O)CNCC(=O)O [iminodiacetate (IDA), iminodiacetate] | 16 |  | Higher | Higher
22 | O=C(O)CCc1c[nH]c2ccccc12 [indolepropionate] | −15 | −21% |  | 
23 | O=C(O)CCCCCCCCCCCCCCCCC(=O)O [octadecanedioate] | 25 |  | Higher | Higher
24 | Cc1ccc(OS(=O)(=O)O)cc1 [p-cresol sulfate] | −26 | 2% |  | 
25 | CCCCCCCCCCCCC/C=C/[C@@H](O)[C@H](COP(=O)([O-])OCC[N+](C)(C)C)NC(=O)CCCCCCCCCCCCCCC [palmitoyl sphingomyelin] | 11 | −3% | Higher | Higher
26 | CC(C)CC(NC(=O)C1CCCN1)C(=O)O (stereo not drawn) [pro-leu] (H-Pro-Leu-OH; configuration not given here) |  | −20% |  | 
27 | O=C(O)[C@@H]1CCCN1 [proline] | −10.00 | −14% | Lower | 
28 | O=c1[nH]cc([C@@H]2O[C@H](CO)[C@@H](O)[C@H]2O)c(=O)[nH]1 [pseudouridine] |  | 4% and −1% |  | 
29 | CCCCCCCCCCCCCCCCCC(N)=O [stearamide] |  | −15% |  | 
30 | CCCCCCCCCCCCC/C=C/[C@@H](O)[C@H](COP(=O)([O-])OCC[N+](C)(C)C)NC(=O)CCCCCCCCCCCCCCCCC [stearoyl sphingomyelin] | 10 | −3% |  | 
31 | glycocholenate sulfate | 20 |  |  | 
32 | hydroxyisovaleroyl carnitine | −12 |  |  | 
33 | linolenate | 14 |  |  | 
34 | methylglutaroylcarnitine | −6 |  |  | 
35 | phosphate | 11 |  | Higher | 
36 | pregn steroid monosulfate | 10 |  |  | 
37 | pregnen-diol disulfate | 27 |  |  | 
38 | pyroglutamine | −25 |  | Lower | 
39 | tartarate | 25 |  |  | 
40 | taurocholenate sulfate | 15 |  |  | 

Where “and” joins values, the source holds several entries; their conditions need not be identical. Equal entries are not always repeated. Structures can show the parent of a compound that is named as a salt. Where a SMILES comes first, the peptide text is derived from it.
